Results published in publication PMC9458672.
Results are given in words; binding and its absence hold for the method and conditions named. Some binding calls cover weakened binding; strength is not graded here. Tags and fused reporters may be left off the sequences shown.

By UniProt entry, the sequences of proteins in these tests, tags left out.
UniProt Q15286: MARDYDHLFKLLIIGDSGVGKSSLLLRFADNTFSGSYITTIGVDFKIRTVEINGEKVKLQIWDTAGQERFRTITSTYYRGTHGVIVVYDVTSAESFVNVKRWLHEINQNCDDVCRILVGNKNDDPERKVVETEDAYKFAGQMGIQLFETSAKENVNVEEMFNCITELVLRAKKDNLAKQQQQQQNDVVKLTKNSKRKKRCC
UniProt P51159: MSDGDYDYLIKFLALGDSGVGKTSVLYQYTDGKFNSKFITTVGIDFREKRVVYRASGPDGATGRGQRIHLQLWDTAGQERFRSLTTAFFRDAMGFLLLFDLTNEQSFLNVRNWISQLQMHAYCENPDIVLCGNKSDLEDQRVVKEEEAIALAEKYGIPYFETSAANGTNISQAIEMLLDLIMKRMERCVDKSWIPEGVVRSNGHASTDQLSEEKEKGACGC

Key:
Assay in all cases: mitochondrial mislocalisation (Tom20 tethering) by fluorescence microscopy; bait tethered to mitochondria by a Tom20 tag and co-expressed with the candidate partner (or stained for the endogenous one) in HUVECs; relocation of the partner to mitochondria read by imaging and Pearson's coefficient
[1] = target: Tom20-Rab35 wild-type (mitochondrial-targeted Rab35), Q15286; conditions: remark: other sources report otherwise
[2] = target: Tom20-Rab35 wild-type (mitochondrial-targeted Rab35) (UniProt Q15286)
tom20-Rab27a = tom20-Rab27a (UniProt P51159)

Row | binding [1] | binding [2] | binding (tom20-Rab27a) | Binder
1 | no binding |  |  | endogenous podocalyxin, O00592 23-558 (protein) SPSPSPSPSQNATQTTTDSSNKTAPTPASSVTIMATDTAQQSTVPTSKANEILASVKATTLGVSSDSPGTTTLAQQVSGPVNTTVARGGGSGNPTTTIESPKSTKSADTTTVATSTATAKPNTTSSQNGAEDTTNSGGKSSHSVTTDLTSTKAEHLTTPHPTSPLSPRQPTSTHPVATPTSSGHDHLMKISSSSSTVAIPGYTFTSPGMTTTLLETVFHHVSQAGLELLTSGDLPTLASQSAGITASSVISQRTQQTSSQMPASSTAPSSQETVQPTSPATALRTPTLPETMSSSPTAASTTHRYPKTPSPTVAHESNWAKCEDLETQTQSEKQLVLNLTGNTLCAGGASDEKLISLICRAVKATFNPAQDKCGIRLASVPGSQTVVVKEITIHTKLPAKDVYERLKDKWDELKEAGVSDMKLGDQGPPEEAEDRFSMPLIITIVCMASFLLLVAALYGCCHQRLSQRKDQQRLTEELQTVENGYHDNPTLEVMETSSEMQEKKVVSLNGELGDSWIVPLDNLTKDDLDEEEDTHL
2 | no binding |  |  | MICAL-1 (tagged, overexpressed), Q8TDZ2 1-1067 (protein) MASPTSTNPAHAHFESFLQAQLCQDVLSSFQELCGALGLEPGGGLPQYHKIKDQLNYWSAKSLWTKLDKRAGQPVYQQGRACTSTKCLVVGAGPCGLRVAVELALLGARVVLVEKRTKFSRHNVLHLWPFTIHDLRALGAKKFYGRFCTGTLDHISIRQLQLLLLKVALLLGVEIHWGVTFTGLQPPPRKGSGWRAQLQPNPPAQLANYEFDVLISAAGGKFVPEGFKVREMRGKLAIGITANFVNGRTVEETQVPEISGVARIYNQSFFQSLLKATGIDLENIVYYKDDTHYFVMTAKKQCLLRLGVLRQDWPDTNRLLGSANVVPEALQRFTRAAADFATHGKLGKLEFAQDAHGQPDVSAFDFTSMMRAESSARVQEKHGARLLLGLVGDCLVEPFWPLGTGVARGFLAAFDAAWMVKRWAEGAESLEVLAERESLYQLLSQTSPENMHRNVAQYGLDPATRYPNLNLRAVTPNQVRDLYDVLAKEPVQRNNDKTDTGMPATGSAGTQEELLRWCQEQTAGYPGVHVSDLSSSWADGLALCALVYRLQPGLLEPSELQGLGALEATAWALKVAENELGITPVVSAQAVVAGSDPLGLIAYLSHFHSAFKSMAHSPGPVSQASPGTSSAVLFLSKLQRTLQRSRAKENAEDAGGKKLRLEMEAETPSTEVPPDPEPGVPLTPPSQHQEAGAGDLCALCGEHLYVLERLCVNGHFFHRSCFRCHTCEATLWPGGYEQHPGDGHFYCLQHLPQTDHKAEGSDRGPESPELPTPSENSMPPGLSTPTASQEGAGPVPDPSQPTRRQIRLSSPERQRLSSLNLTPDPEMEPPPKPPRSCSALARHALESSFVGWGLPVQSPQALVAMEKEEKESPFSSEEEEEDVPLDSDVEQALQTFAKTSGTMNNYPTWRRTLLRRAKEEEMKRFCKAQTIQRRLNEIEAALRELEAEGVKLELALRRQSSSPEQQKKLWVGQLLQLVDKKNSLVAEEAELMITVQELNLEEKQWQLDQELRGYMNREENLKTAADRQAEDQVLRKLVDLVNQRDALIRFQEERRLSELALGTGAQG
3 |  | binds | no binding | ACAP2 (tagged, overexpressed) (protein, UniProt Q15057 1-778) MKMTVDFEECLKDSPRFRAALEEVEGDVAELELKLDKLVKLCIAMIDTGKAFCVANKQFMNGIRDLAQYSSNDAVVETSLTKFSDSLQEMINFHTILFDQTQRSIKAQLQNFVKEDLRKFKDAKKQFEKVSEEKENALVKNAQVQRNKQHEVEEATNILTATRKCFRHIALDYVLQINVLQSKRRSEILKSMLSFMYAHLAFFHQGYDLFSELGPYMKDLGAQLDRLVVDAAKEKREMEQKHSTIQQKDFSSDDSKLEYNVDAANGIVMEGYLFKRASNAFKTWNRRWFSIQNNQLVYQKKFKDNPTVVVEDLRLCTVKHCEDIERRFCFEVVSPTKSCMLQADSEKLRQAWIKAVQTSIATAYREKGDESEKLDKKSSPSTGSLDSGNESKEKLLKGESALQRVQCIPGNASCCDCGLADPRWASINLGITLCIECSGIHRSLGVHFSKVRSLTLDTWEPELLKLMCELGNDVINRVYEANVEKMGIKKPQPGQRQEKEAYIRAKYVERKFVDKYSISLSPPEQQKKFVSKSSEEKRLSISKFGPGDQVRASAQSSVRSNDSGIQQSSDDGRESLPSTVSANSLYEPEGERQDSSMFLDSKHLNPGLQLYRASYEKNLPKMAEALAHGADVNWANSEENKATPLIQAVLGGSLVTCEFLLQNGANVNQRDVQGRGPLHHATVLGHTGQVCLFLKRGANQHATDEEGKDPLSIAVEAANADIVTLLRLARMNEEMRESEGLYGQPGDETYQDIFRDFSQMASNNPEKLNRFQQDSQKF
4 | no binding |  |  | MICAL-L1 (tagged, overexpressed), Q8N3F8 1-863 (protein) MAGPRGALLAWCRRQCEGYRGVEIRDLSSSFRDGLAFCAILHRHRPDLLDFDSLSKDNVFENNRLAFEVAEKELGIPALLDPNDMVSMSVPDCLSIMTYVSQYYNHFCSPGQAGVSPPRKGLAPCSPPSVAPTPVEPEDVAQGEELSSGSLSEQGTGQTPSSTCAACQQHVHLVQRYLADGRLYHRHCFRCRRCSSTLLPGAYENGPEEGTFVCAEHCARLGPGTRSGTRPGPFSQPKQQHQQQLAEDAKDVPGGGPSSSAPAGAEADGPKASPEARPQIPTKPRVPGKLQELASPPAGRPTPAPRKASESTTPAPPTPRPRSSLQQENLVEQAGSSSLVNGRLHELPVPKPRGTPKPSEGTPAPRKDPPWITLVQAEPKKKPAPLPPSSSPGPPSQDSRQVENGGTEEVAQPSPTASLESKPYNPFEEEEEDKEEEAPAAPSLATSPALGHPESTPKSLHPWYGITPTSSPKTKKRPAPRAPSASPLALHASRLSHSEPPSATPSPALSVESLSSESASQTAGAELLEPPAVPKSSSEPAVHAPGTPGNPVSLSTNSSLASSGELVEPRVEQMPQASPGLAPRTRGSSGPQPAKPCSGATPTPLLLVGDRSPVPSPGSSSPQLQVKSSCKENPFNRKPSPAASPATKKATKGSKPVRPPAPGHGFPLIKRKVQADQYIPEEDIHGEMDTIERRLDALEHRGVLLEEKLRGGLNEGREDDMLVDWFKLIHEKHLLVRRESELIYVFKQQNLEQRQADVEYELRCLLNKPEKDWTEEDRAREKVLMQELVTLIEQRNAIINCLDEDRQREEEEDKMLEAMIKKKEFQREAEPEGKKKGKFKTMKMLKLLGNKRDAKSKSPRDKS
